Laboratory results: paper PMC8933468
These are yes or no findings as the source states them, for the method shown. Binding seen in cells or lysates may run through a third protein. Here binding means that the protein was enriched with, or labelled near, the bait; the list need not be complete. Sequences can lack the tags named with a protein.

Amino acid sequences for entries named in this document (tags omitted).
UniProt P38936: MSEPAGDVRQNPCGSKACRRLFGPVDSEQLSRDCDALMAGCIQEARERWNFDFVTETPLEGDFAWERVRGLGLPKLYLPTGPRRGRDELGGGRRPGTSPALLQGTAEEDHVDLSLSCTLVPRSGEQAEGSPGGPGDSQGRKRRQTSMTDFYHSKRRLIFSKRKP

Target: T1, Flag-CMTM6 (UniProt Q9NX76)
T1 sequence: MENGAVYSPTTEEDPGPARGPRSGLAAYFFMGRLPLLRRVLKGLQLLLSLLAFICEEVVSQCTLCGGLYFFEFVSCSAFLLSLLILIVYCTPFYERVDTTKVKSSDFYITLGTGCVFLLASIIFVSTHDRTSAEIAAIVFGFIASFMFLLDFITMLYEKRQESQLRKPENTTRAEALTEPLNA
Experiment: affinity purification with mass spectrometry; 293T cells transfected with empty vector or Flag-CMTM6; immunoprecipitation with anti-Flag antibody, silver staining, differential bands analysed by LC-MS/MS

binding: binds
Substance: endogenous p21 (from UniProt P38936 1-164)
